A short description of the data set: Body weight, metabolic rate (indirect calorimetry) and fasting serum lipids in mice. Format: in vivo, mouse. The note with it: ATM^+/+ apoE^−/− mice, 7 mg/kg/week, 8 weeks.

This note sets out measurements from patent US8440695B2 (St Jude Children's Research Hospital, priority 2005, dated 2013).

`CCN(CC)CCCC(C)Nc1ccnc2cc(Cl)ccc12` (centres unmarked) [chloroquine, N4-(7-Chloro-4-quinolinyl)-N1,N1-diethyl-1,4-pentanediamine]: the body weight entry is on record as “no effect” and the “metabolic rate (indirect calorimetry)” value is reported as “no effect”.
